PubChem BioAssay AID652272, Drosophila RNAi Screening Center, 2013

Assay: 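Genes whose knock-down decreases or increases Hedgehog reporter output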 (primary screen)
Cell system: Drosophila clone 8 (Cl8) cells
Reagents: long dsRNA against Drosophila genes
Measured: 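Firefly light from a Hedgehog-responsive ptc promoter reporter and Renilla reference light, both read on a plate reader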
Scale: firefly Hh reporter signal: higher = more ptc reporter light; Renilla reference signal: higher = more Renilla control light
Call rule: 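Called a hit if the two-replicate mean z-score lies below -2 or above +3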
Meaning of the calls: active = hit: reporter lowered or raised; inactive = not a hit
In all, the deposit lists about 21,000 reagents; this is an unselected part of those with a known target gene and a result. Of all reagents, 503 (2.4%) got an active call. 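Raw plate light values, not normalised; calls rest on replicate z-scores that were not deposited; hits include reporter decreases as well as increases.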 Unmarked entries are inactive. A plus sign joins genes that one reagent is predicted to hit. Not given: the amount of reagent, the time to read-out.

gene knocked down | dsRNA | firefly Hh reporter signal, replicate 1 | firefly Hh reporter signal, replicate 2 | firefly Hh reporter signal, replicate 3 | Renilla reference signal, replicate 1 | Renilla reference signal, replicate 2
Cyp9f2 (Cytochrome P450 9f2) | DRSC16635 | 1.59e5 | 90624 | – | 6145 | 3680
wam (wampa) | DRSC15171 | 5.53e5 | 82573 | – | 26041 | 2411
CG30269 | DRSC04158 | 1.66e5 | 86405 | – | 4219 | 7552
SMC5 (Structural maintenance of chromosomes 5) | DRSC11849 | 1.24e5 | 1.32e5 | – | 4536 | 4688
Cpsf100 (Cleavage and polyadenylation specificity factor 100) | DRSC14146 | 70792 | 1.30e5 | – | 1306 | 4148
CG8646 | DRSC07230 | 75831 | 63819 | – | 1542 | 3308
CG31792 | DRSC02604 | 72337 | 40378 | – | 1980 | 3741
Dr (Drop) | DRSC17002 | 1.63e5 | 7.08e5 | 1.44e5 | 4134 | 6065
CG11983 | DRSC14458 | 80097 | 82407 | – | 3104 | 2424
CG2310 | DRSC15438 | 64404 | 63035 | – | 1280 | 1523
CG5860 | DRSC15896 | 66214 | 1.17e5 | – | 1121 | 3089
Gpb5 (Glycoprotein hormone beta 5) | DRSC21241 | 7.91e5 | 2.30e5 | – | 42354 | 5428
Fsn (F-box synaptic protein) | DRSC06875 | 1.09e5 | 94305 | – | 4313 | 3223
CG15831 (retired record) | DRSC20816 | 1.20e5 | 2.04e5 | – | 4581 | 9210
CG10435 | DRSC14246 | 93115 | 69622 | – | 4326 | 3009
ste24a (prenyl protease type I) | DRSC07314 | 1.71e5 | 55968 | – | 5954 | 2730
Oatp58Dc (Organic anion transporting polypeptide 58Dc) | DRSC04363 | 45776 | 61991 | – | 2163 | 2212
Obp46a (Odorant-binding protein 46a) | DRSC06220 | 75281 | 69344 | – | 1768 | 5285
Adh + Adhr | DRSC01862 | 94588 | 46307 | – | 4080 | 2332
Adh + Adhr | DRSC01863 | 1.54e5 | 60743 | – | 3668 | 5704
Sas-4 (Spindle assembly abnormal 4) | DRSC12505 | 85160 | 1.01e5 | – | 3458 | 2689
Nlg2 (Neuroligin 2) | DRSC00957 | 4.82e5 | 1.81e5 | – | 19281 | 6490
Nlg2 (Neuroligin 2) | DRSC03578 | 1.09e5 | 46157 | – | 2754 | 5564
CG3434 | DRSC10365 | 67597 | 35604 | – | 2949 | 1307
Abi (Abelson interacting protein) | DRSC14099 | 85194 | 90881 | – | 3530 | 3632
fs(2)ltoPP43 (female sterile (2) ltoPP43) | DRSC02067 | 67280 | 44832 | – | 1601 | 4468
CG7882 | DRSC04899 | 82947 | 65577 | – | 1976 | 5041
Vps13B (Vacuolar protein sorting 13B) | DRSC15060 | 97052 | 1.45e5 | – | 3872 | 4438
CG12862 | DRSC06202 | 73434 | 44300 | – | 2208 | 3830
CG6431 | DRSC02956 | 1.29e5 | 48130 | – | 3266 | 5378
Hs3st-A (Heparan sulfate 3-O sulfotransferase-A) | DRSC06507 | 56188 | 26316 | – | 3739 | 1339
Hs3st-A (Heparan sulfate 3-O sulfotransferase-A) | DRSC06508 | 63238 | 42745 | – | 1878 | 3812
Hs3st-A (Heparan sulfate 3-O sulfotransferase-A) | DRSC06509 | 82677 | 65223 | – | 2448 | 4743

Next part (4 carried over from the part before).
gene knocked down | dsRNA | firefly Hh reporter signal, replicate 1 | firefly Hh reporter signal, replicate 2 | firefly Hh reporter signal, replicate 3 | Renilla reference signal, replicate 1 | Renilla reference signal, replicate 2
CG6431 | DRSC02956 | 1.29e5 | 48130 | – | 3266 | 5378
Hs3st-A (Heparan sulfate 3-O sulfotransferase-A) | DRSC06507 | 56188 | 26316 | – | 3739 | 1339
Hs3st-A (Heparan sulfate 3-O sulfotransferase-A) | DRSC06508 | 63238 | 42745 | – | 1878 | 3812
Hs3st-A (Heparan sulfate 3-O sulfotransferase-A) | DRSC06509 | 82677 | 65223 | – | 2448 | 4743
Hrs (Hepatocyte growth factor regulated tyrosine kinase substrate) | DRSC00549 | 1.42e5 | 1.05e5 | – | 5636 | 3787
RNF220 (ring finger protein 220) | DRSC15652 | 1.27e5 | 90226 | – | 5526 | 3928
cnc (cap-n-collar) | DRSC14676 | 5.90e5 | 1.14e5 | – | 26186 | 3485
cnc (cap-n-collar) | DRSC15289 | 1.52e5 | 70291 | – | 5808 | 3193
cnc (cap-n-collar) | DRSC15600 | 4.79e5 | 1.19e5 | – | 24080 | 3367
cnc (cap-n-collar) | DRSC15601 | 5.55e5 | 90225 | – | 25548 | 2684
CG11741 | DRSC14367 | 77656 | 1.55e5 | – | 3634 | 4260
cGlr1 (cGAS-like receptor 1) | DRSC06270 | 73219 | 48883 | – | 870 | 3309
mab-21 | DRSC18791 | 99094 | 2.63e5 | – | 2344 | 11328
Akap200 (A kinase anchor protein 200) | DRSC01864 | 61955 | 33591 | – | 2901 | 1259
CG11523 | DRSC11669 | 1.10e5 | 90618 | – | 4343 | 3729
Osi19 (Osiris 19) | DRSC12569 | 59088 | 1.28e5 | – | 2132 | 3611
htt (huntingtin) | DRSC16970 | 84503 | 80832 | – | 2192 | 2230
CG7341 | DRSC10818 | 67570 | 54489 | – | 2732 | 1852
CG8441 | DRSC07180 | 1.05e5 | 73280 | – | 4816 | 2855
Cyp4ac2 (Cytochrome P450 4ac2) | DRSC03303 | 1.45e5 | 81513 | – | 4169 | 7869
Ir7g (Ionotropic receptor 7g) | DRSC18008 | 76221 | 2.62e5 | – | 1795 | 9296
CSN1b (COP9 signalosome subunit 1b) | DRSC11108 | 1.05e5 | 77334 | – | 3652 | 2881
Suv3 (Suv3 helicase) | DRSC12335 | 1.21e5 | 75488 | – | 4592 | 3000
Rrp40 (Ribosomal RNA processing 40) | DRSC00074 | 6.28e5 | 2.96e5 | – | 35521 | 12534
CG31921 | DRSC00013 | 6.48e5 | 3.04e5 | – | 34162 | 11492
Ggt-1 (gamma-glutamyl transpeptidase) | DRSC19993 | 1.84e5 | 1.10e5 | – | 4246 | 2400
aay (astray) | DRSC11320 | 99907 | 61773 | – | 4357 | 2581
Idgf4 (Imaginal disc growth factor 4) | DRSC18675 | 75976 | 1.54e5 | – | 2168 | 6307
